These results are taken from patent publication US20110131688A1.

No constants are given. Whether binding was seen depends on the method and setting. Some binding calls cover weakened binding; strength is not graded here.

The target in assay [1] is T1, EIN3 full-length protein (ETHYLENE-…3 transcription factor) (Arabidopsis) (UniProt O24606).
T1 sequence: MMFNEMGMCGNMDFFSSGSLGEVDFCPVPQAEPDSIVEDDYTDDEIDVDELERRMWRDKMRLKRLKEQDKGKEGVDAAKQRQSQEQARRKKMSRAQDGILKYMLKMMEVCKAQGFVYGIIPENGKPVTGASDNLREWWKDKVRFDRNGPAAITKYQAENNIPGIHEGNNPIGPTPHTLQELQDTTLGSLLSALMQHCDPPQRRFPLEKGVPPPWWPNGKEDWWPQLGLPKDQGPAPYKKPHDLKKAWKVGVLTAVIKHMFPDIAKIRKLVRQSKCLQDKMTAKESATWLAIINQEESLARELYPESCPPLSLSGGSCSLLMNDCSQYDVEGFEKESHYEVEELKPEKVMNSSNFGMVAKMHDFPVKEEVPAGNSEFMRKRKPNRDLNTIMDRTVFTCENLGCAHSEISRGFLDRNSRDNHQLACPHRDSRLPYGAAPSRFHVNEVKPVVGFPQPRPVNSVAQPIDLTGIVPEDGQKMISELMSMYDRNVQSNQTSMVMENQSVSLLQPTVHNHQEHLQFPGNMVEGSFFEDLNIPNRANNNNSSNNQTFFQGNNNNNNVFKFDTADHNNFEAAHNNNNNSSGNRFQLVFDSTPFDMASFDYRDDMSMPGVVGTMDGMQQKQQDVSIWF
Description: yeast two-hybrid.

Assay [2] concerns the target T1, EIN3 full-length protein (ETHYLENE-…3 transcription factor) (Arabidopsis). Description: yeast two-hybrid, filter-lift beta-galactosidase.

B1: EBF2 C-terminal LRR domain (protein)
chain: EEGEGFLSRSLEGKKATDLRLAAIAVGTSSRGGLGKLQIRGSGFESKVTDVGLGAVAHGCPSLRIVSLWNLPAVSDLGLSEIARSCPMIEKLDLSRCPGITDSGLVAIAENCVNLSDLTIDSCSGVGNEGLRAIARRCVNLRSISIRSCPRIGDQGVAFLLAQAGSYLTKVKLQMLNVSGLSLAVIGHYGAAVTDLVLHGLQGVNEKGFWVMGNAKGLKKLKSLSVMSCRGMTDVGLEAVGNGCPDLKHVSLNKCLLVSGKGLVALAKSALSLESLKLEECHRINQFGLMGFLMNCGSKLKAFSLANCLGISDFNSESSLPSPSCSSLRSLSIRCCPGFGDASLAFLGKFCHQLQDVELCGLNGVTDAGVRELLQSNNVGLVKVNLSECINVSDNTVSAISVCHGRTLESLNLDGCKNITNASLVAVAKNCYSVNDLDISNTLVSDHGIKALASSPNHLNLQVLSIGGCSSITDKSKACIQKLGRTLLGLNIQRCGRISSSTVDTLLENLWRCDILY
Regarding B1, the binding result in assay [1] and in assay [2] was “binds” each time.

B2: EBF1 C-terminal LRR domain (protein)
chain: PSKITEDGDDCEGCLSRSLDGKKATDVRLAAIAVGTAGRGGLGKLSIRGSNSAKVSDLGLRSIGRSCPSLGSLSLWNVSTITDNGLLEIAEGCAQLEKLELNRCSTITDKGLVAIAKSCPNLTELTLEACSRIGDEGLLAIARSCSKLKSVSIKNCPLVRDQGIASLLSNTTCSLAKLKLQMLNVTDVSLAVVGHYGLSITDLVLAGLSHVSEKGFWVMGNGVGLQKLNSLTITACQGVTDMGLESVGKGCPNMKKAIISKSPLLSDNGLVSFAKASLSLESLQLEECHRVTQFGFFGSLLNCGEKLKAFSLVNCLSIRDLTTGLPASSHCSALRSLSIRNCPGFGDANLAAIGKLCPQLEDIDLCGLKGITESGFLHLIQSSLVKINFSGCSNLTDRVISAITARNGWTLEVLNIDGCSNITDASLVSIAANCQILSDLDISKCAISDSGIQALASSDKLKLQILSVAGCSMVTDKSLPAIVGLGSTLLGLNLQQCRSISNSTVDFLVERLYKCDILS
With B2, the binding entry in assay [1] and in assay [2] was “binds” in each case.
